# Results of single-concentration screens

Sequences of proteins named here, by UniProt entry; tags and fusion partners are left off. Residues count along the entry.
UniProt Q4DA54, 1-478: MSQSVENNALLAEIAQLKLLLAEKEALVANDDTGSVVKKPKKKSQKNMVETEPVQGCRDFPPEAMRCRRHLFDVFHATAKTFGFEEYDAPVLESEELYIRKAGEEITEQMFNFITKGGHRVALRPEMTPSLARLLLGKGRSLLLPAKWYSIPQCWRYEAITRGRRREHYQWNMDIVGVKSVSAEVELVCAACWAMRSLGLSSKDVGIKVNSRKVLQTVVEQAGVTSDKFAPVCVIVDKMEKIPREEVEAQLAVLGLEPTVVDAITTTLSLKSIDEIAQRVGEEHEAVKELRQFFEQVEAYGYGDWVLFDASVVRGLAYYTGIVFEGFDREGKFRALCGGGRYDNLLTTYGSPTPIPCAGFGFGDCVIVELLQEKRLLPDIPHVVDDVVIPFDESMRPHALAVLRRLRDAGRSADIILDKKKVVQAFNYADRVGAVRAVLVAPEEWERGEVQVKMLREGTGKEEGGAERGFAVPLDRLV
UniProt P9WNZ1, whole entry: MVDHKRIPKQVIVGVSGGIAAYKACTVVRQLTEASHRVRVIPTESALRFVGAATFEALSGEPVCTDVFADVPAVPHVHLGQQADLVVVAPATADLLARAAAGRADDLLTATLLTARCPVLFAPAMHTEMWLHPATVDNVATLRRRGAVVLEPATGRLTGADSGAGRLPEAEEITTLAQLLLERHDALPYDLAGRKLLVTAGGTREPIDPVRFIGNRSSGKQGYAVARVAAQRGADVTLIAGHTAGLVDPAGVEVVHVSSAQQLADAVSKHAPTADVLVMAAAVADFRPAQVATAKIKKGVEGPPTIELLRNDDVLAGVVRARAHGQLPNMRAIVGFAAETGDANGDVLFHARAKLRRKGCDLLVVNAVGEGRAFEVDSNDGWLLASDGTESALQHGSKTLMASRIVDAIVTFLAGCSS
UniProt A4I591, 1-473: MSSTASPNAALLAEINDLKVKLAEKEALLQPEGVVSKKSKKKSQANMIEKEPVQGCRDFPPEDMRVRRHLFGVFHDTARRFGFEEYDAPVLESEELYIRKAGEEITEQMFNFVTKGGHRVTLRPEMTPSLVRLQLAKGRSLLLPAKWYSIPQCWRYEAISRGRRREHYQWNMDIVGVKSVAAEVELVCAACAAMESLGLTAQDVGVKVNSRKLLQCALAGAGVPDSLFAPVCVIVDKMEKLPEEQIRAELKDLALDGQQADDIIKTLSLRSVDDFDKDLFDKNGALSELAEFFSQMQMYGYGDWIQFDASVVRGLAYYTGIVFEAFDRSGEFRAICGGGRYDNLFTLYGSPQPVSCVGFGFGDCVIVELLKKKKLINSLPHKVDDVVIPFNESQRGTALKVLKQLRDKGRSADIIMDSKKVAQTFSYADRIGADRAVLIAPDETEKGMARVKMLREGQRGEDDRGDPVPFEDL

From ChEMBL document CHEMBL3988442, “University of Dundee, Small-Polar-MMV Screening Library” (2021).

TcHisRS: 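Histidine-tRNA ligase, Trypanosoma cruzi CL Brener (UniProt Q4DA54). Enzyme assay of histidyl-tRNA synthetase; the read-out is not stated. Concentration: 30 µM. The record gives no direction; compounds that gave an IC50 in retests scored well above the rest, so higher reads as stronger inhibition. Of about 69,000 compounds tested this way, about 31 (0.045%) reached 50% or more in at least one test.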
Leishmania in macrophages: 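Cell assay of Leishmania donovani living inside macrophages; the read-out is not stated. Concentration: 30 µM. Direction is inferred from retests: higher values go with stronger inhibition. About 69,000 compounds were tested under these conditions; 1.5% (about 1,000) showed 50% or more at least once.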
Toxoplasma: 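Assay of Toxoplasma gondii numbers, read through their beta-galactosidase reporter with a colour substrate. Tested at 10 µM. The record gives no direction; the compounds picked for IC50 retests had high values, so higher reads as fewer parasites. About 67,000 compounds were tested under these conditions; 0.38% (about 260) showed 50% or more at least once.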
CoaBC: 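Coenzyme A biosynthesis protein CoaBC, Mycobacterium tuberculosis (UniProt P9WNZ1). Enzyme assay of CoaBC with a phosphate dye (Biomol Green) read at 650 nm. Compounds at 30 µM. Higher reads as stronger inhibition, judged from the few compounds that gave an IC50. Most strong results did not repeat in a second test. About 67,000 compounds were tested under these conditions; 0.06% (about 40) showed 50% or more at least once.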
LiHisRS: 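Histidine-tRNA ligase, Leishmania infantum (UniProt A4I591). Enzyme assay of histidyl-tRNA synthetase; the read-out is not stated. Tested at 30 µM. The record gives no direction; compounds that gave an IC50 in retests scored well above the rest, so higher reads as stronger inhibition. The assay is labelled LdHisRS but filed under L. infantum. Of about 69,000 compounds tested this way, about 410 (0.6%) reached 50% or more in at least one test.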

Values are the deposited “Percent Effect”, in %. The record does not define 0% and 100%; most values in the screen are far below 50% and negative numbers occur (in some assays of this library far below -100). Compounds were drawn at random from those tested, without regard to their results. Two or more numbers in one place are separate tests of the same structure; such repeats can differ widely.

{"structure": "CCC1(CNCc2ncc[nH]2)CCCC1", "TcHisRS": 4.202, "Leishmania in macrophages": 21.03, "Toxoplasma": -3.001, "CoaBC": 3.226, "LiHisRS": 0}
{"structure": "CC(C)(NCC(=O)NCCC#N)c1ccc2c(c1)OCCO2", "TcHisRS": -2.256, "Leishmania in macrophages": 23.21, "Toxoplasma": 3.159, "CoaBC": 4.626, "LiHisRS": 26.19}
{"structure": "Cc1nc(C)c(S(=O)(=O)NC(=O)c2sccc2C)s1", "TcHisRS": 1.98, "Leishmania in macrophages": -11.56, "Toxoplasma": -11.15, "CoaBC": 4.369, "LiHisRS": -4.762}
{"structure": "Cc1ccc2nc3n(c2c1)[C@@H](CNC(=O)c1ccncc1)COC3", "TcHisRS": 2.174, "Leishmania in macrophages": 5.422, "Toxoplasma": -5.494, "CoaBC": -5.96, "LiHisRS": 9.459}
{"structure": "COC(=O)CNC(=O)c1nc(-c2ccccc2OC)c2cnccn12", "TcHisRS": 0.5917, "Leishmania in macrophages": 25.96, "Toxoplasma": 5.032, "CoaBC": 3.947, "LiHisRS": 9.655}
{"structure": "Cl.Cl.c1c(CN2CCCC2)nc2n1CCNC2", "Leishmania in macrophages": -11.73, "Toxoplasma": 9.407}
{"structure": "O=C(NCCc1cccs1)[C@]12COC[C@H]1CN(C1CCOCC1)C2", "TcHisRS": 3.093, "CoaBC": 3.941, "LiHisRS": 22}
{"structure": "Cc1noc(C)c1CN1C[C@@H]2CC(F)(F)C[C@@H]2C1", "TcHisRS": 8.889, "CoaBC": 3.171, "LiHisRS": 9.434}
{"structure": "CC1CN(CCC(=O)NCCc2cccnc2)Cc2ccccc2O1", "stereo": "configuration not stated", "TcHisRS": -2.41, "Leishmania in macrophages": -75.3, "Toxoplasma": -11.12, "CoaBC": 1.98, "LiHisRS": -4}
{"structure": "O=C(CCc1cc2n(n1)CCCNC2)N1CCSCC1", "TcHisRS": 1.064, "Leishmania in macrophages": 9.821, "Toxoplasma": -11.36, "CoaBC": 3.484, "LiHisRS": 18.57}
{"structure": "COc1ccc(C(=O)N2CCCCC2c2ccccn2)c(OC)n1", "stereo": "configuration not stated", "TcHisRS": -1.212, "Leishmania in macrophages": -18.97, "Toxoplasma": -13.47, "CoaBC": 5.364, "LiHisRS": 18.18}
{"structure": "O=C(CCN1C(=O)CCC1=O)Nc1cnn(-c2ccccc2Cl)c1", "TcHisRS": 4.215, "Leishmania in macrophages": 3.75, "Toxoplasma": 4.631, "CoaBC": 2.698, "LiHisRS": 12.31}
{"structure": "CCN1CCC2(CC1)C(=O)Nc1ccc(C(=O)NC)cc12.O=C(O)C(F)(F)F", "Leishmania in macrophages": 1.318, "Toxoplasma": 8.392}
{"structure": "CC(C(=O)N1CCN(c2ncccn2)CC1)n1cncn1", "stereo": "configuration not stated", "TcHisRS": 6.59, "Leishmania in macrophages": 12.61, "Toxoplasma": -4.873, "CoaBC": -2.857, "LiHisRS": 12.28}
{"structure": "CC(NCc1cccc(S(=O)(=O)N(C)C)c1)c1cccnc1", "stereo": "configuration not stated", "TcHisRS": 4.211, "Leishmania in macrophages": 3.963, "Toxoplasma": -37.62, "CoaBC": -5.179, "LiHisRS": 0}
{"structure": "O=C([C@H]1CC[C@@H]2[C@@H](CCN2Cc2ccc(F)cc2)O1)N1CCCO1", "TcHisRS": 2.941, "CoaBC": -7.818, "LiHisRS": 22.86}
{"structure": "[H][C@@]12C[C@H](C)O[C@@]1([H])CCN(C(=O)c1occc1C)C2", "Leishmania in macrophages": 11.25, "Toxoplasma": -8.379}
{"structure": "COCCN(Cc1cnn(C)c1)CC1CCN(C(C)C)CC1", "TcHisRS": 6.077, "Leishmania in macrophages": 53.86, "Toxoplasma": -7.77, "CoaBC": "22.82 and 15.87", "LiHisRS": 12.05}
{"structure": "O=C(O)C(F)(F)F.[H][C@@]12CCN(Cc3ccsc3)C[C@@]1([H])[C@H](C(=O)NC1CC1)CCO2", "Leishmania in macrophages": -19.87, "Toxoplasma": -0.6993}
{"structure": "COc1ccccc1C(C)N(C)Cc1nc2c(cnn2C)c(=O)[nH]1", "stereo": "configuration not stated", "TcHisRS": 5.539, "Leishmania in macrophages": -6.857, "Toxoplasma": 20.18, "CoaBC": 4.359, "LiHisRS": 12.84}
{"structure": "NC(=O)CN(C(=O)Cc1ccc(C(F)(F)F)cc1)C1CCCC1", "TcHisRS": 10.34, "Leishmania in macrophages": -6.546, "Toxoplasma": -0.8021, "CoaBC": 2.161, "LiHisRS": 13.16}
{"structure": "Cl.Cl.OC(CN1CCN(Cc2cc(F)cc(F)c2)CC1)C1CC1", "stereo": "configuration not stated", "Leishmania in macrophages": 24.57, "Toxoplasma": -8.19}

Some entries from above, unchanged:

* O=C(CCN1C(=O)CCC1=O)Nc1cnn(-c2ccccc2Cl)c1 : TcHisRS: 4.215%; Leishmania in macrophages: 3.75%; Toxoplasma: 4.631%; CoaBC: 2.698%; LiHisRS: 12.31%
* Cc1nc(C)c(S(=O)(=O)NC(=O)c2sccc2C)s1 : TcHisRS: 1.98%; Leishmania in macrophages: -11.56%; Toxoplasma: -11.15%; CoaBC: 4.369%; LiHisRS: -4.762%